Common to all, as to experiment: log2 fold change, soluble protein after heating vs DMSO (PISA); higher = thermal stabilisation; K562 cells, 10 uM, 30 min; active = over 0.2 and 3.5 SD of the protein, either way, in both replicates (recomputed)
Compound in assay [1]: C1=CC=C(C=C1)[C@H](COC2=CC3=C(C=C2)NC(=O)N3)NC(=O)C4=CC=CN(C4=O)CC5=CC(=C(C=C5)F)F
Put shortly:
(§1)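 Soluble protein was defined as the supernatant after 21,000xg for 90 min. It came from K562 cells at 2×10^6 cells/mL given 10 μM compound for 30 min, heated in aliquots for 3 min across 48°C-58°C, pooled, and extracted in PBS with 0.5% NP-40 at 4°C, and was quantified by TMTpro 16plex LC-MS/MS with equalised channel sums. Thermal stability against control samples, from duplicates, is reported as log2 fold change.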

Amino acid sequences for entries named in this document (tags omitted). A change or cut given only in a name is not applied to a line headed by its entry.
UniProt P09622, whole entry, looked up: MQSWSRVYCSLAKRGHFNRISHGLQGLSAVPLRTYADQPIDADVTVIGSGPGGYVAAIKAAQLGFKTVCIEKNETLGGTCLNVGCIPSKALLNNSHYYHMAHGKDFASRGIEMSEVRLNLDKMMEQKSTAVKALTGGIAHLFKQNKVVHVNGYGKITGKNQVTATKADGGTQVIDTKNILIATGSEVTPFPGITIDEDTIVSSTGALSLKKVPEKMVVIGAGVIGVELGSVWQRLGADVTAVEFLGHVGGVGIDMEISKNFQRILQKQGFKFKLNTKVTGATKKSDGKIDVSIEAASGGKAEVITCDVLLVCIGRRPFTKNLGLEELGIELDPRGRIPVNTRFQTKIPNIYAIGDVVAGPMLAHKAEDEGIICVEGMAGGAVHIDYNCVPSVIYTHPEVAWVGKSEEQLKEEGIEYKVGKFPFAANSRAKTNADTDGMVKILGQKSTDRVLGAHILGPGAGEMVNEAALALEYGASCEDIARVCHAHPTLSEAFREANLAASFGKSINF
UniProt P35659: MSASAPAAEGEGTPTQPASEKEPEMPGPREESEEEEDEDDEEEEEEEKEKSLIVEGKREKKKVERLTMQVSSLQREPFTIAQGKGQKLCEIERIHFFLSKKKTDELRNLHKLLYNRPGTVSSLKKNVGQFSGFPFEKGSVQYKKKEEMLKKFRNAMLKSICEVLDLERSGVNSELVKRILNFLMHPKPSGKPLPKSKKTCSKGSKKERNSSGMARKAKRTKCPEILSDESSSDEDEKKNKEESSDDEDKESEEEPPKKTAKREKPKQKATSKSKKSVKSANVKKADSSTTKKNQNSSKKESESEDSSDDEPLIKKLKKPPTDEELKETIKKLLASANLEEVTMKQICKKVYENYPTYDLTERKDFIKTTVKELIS
UniProt Q96GE9: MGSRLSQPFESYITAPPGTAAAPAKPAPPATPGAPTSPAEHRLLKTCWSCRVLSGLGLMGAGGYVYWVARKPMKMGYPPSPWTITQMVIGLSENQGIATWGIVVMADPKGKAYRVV
UniProt O94760: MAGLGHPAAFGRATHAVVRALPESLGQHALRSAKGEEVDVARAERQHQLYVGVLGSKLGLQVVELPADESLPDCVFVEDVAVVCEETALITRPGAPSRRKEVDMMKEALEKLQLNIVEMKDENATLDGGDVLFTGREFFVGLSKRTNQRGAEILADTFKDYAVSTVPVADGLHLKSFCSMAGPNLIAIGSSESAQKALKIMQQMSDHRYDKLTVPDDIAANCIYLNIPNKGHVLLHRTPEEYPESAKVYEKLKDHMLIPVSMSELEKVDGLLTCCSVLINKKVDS
UniProt Q99766: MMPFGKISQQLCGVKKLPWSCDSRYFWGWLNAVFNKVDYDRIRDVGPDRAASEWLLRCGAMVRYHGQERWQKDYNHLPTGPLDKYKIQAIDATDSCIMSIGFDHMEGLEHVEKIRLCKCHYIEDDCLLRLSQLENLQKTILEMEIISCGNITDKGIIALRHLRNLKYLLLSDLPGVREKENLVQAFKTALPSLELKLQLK
UniProt O76075: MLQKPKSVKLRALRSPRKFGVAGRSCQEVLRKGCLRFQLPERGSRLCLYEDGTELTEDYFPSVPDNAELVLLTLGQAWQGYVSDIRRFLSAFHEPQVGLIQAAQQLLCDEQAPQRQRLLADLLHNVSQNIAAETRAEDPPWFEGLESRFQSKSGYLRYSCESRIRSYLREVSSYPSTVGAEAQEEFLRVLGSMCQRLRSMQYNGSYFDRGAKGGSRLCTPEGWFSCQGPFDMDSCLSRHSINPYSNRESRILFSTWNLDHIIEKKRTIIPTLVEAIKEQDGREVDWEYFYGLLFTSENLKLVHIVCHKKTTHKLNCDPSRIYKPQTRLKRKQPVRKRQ
UniProt Q16854: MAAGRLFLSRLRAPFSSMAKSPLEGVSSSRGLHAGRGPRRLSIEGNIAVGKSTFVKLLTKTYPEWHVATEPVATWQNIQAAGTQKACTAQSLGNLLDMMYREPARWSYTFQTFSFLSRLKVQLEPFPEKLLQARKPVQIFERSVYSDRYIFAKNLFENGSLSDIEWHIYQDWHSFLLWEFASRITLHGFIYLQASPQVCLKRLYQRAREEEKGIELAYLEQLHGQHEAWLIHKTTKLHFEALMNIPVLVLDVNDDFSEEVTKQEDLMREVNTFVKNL
UniProt Q9NUU7: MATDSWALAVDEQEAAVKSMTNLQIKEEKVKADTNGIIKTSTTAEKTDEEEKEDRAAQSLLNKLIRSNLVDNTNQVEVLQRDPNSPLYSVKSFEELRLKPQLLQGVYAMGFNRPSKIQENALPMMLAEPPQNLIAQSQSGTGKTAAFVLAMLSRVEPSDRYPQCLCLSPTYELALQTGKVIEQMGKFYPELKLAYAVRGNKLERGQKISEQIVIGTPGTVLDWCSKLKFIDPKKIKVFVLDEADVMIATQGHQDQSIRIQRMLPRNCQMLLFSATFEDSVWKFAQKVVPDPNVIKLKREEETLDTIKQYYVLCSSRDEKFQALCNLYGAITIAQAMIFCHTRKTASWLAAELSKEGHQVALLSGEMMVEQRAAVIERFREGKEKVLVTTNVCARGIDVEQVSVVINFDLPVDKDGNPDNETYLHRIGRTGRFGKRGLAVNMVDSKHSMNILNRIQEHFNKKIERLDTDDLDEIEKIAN
UniProt Q7Z401: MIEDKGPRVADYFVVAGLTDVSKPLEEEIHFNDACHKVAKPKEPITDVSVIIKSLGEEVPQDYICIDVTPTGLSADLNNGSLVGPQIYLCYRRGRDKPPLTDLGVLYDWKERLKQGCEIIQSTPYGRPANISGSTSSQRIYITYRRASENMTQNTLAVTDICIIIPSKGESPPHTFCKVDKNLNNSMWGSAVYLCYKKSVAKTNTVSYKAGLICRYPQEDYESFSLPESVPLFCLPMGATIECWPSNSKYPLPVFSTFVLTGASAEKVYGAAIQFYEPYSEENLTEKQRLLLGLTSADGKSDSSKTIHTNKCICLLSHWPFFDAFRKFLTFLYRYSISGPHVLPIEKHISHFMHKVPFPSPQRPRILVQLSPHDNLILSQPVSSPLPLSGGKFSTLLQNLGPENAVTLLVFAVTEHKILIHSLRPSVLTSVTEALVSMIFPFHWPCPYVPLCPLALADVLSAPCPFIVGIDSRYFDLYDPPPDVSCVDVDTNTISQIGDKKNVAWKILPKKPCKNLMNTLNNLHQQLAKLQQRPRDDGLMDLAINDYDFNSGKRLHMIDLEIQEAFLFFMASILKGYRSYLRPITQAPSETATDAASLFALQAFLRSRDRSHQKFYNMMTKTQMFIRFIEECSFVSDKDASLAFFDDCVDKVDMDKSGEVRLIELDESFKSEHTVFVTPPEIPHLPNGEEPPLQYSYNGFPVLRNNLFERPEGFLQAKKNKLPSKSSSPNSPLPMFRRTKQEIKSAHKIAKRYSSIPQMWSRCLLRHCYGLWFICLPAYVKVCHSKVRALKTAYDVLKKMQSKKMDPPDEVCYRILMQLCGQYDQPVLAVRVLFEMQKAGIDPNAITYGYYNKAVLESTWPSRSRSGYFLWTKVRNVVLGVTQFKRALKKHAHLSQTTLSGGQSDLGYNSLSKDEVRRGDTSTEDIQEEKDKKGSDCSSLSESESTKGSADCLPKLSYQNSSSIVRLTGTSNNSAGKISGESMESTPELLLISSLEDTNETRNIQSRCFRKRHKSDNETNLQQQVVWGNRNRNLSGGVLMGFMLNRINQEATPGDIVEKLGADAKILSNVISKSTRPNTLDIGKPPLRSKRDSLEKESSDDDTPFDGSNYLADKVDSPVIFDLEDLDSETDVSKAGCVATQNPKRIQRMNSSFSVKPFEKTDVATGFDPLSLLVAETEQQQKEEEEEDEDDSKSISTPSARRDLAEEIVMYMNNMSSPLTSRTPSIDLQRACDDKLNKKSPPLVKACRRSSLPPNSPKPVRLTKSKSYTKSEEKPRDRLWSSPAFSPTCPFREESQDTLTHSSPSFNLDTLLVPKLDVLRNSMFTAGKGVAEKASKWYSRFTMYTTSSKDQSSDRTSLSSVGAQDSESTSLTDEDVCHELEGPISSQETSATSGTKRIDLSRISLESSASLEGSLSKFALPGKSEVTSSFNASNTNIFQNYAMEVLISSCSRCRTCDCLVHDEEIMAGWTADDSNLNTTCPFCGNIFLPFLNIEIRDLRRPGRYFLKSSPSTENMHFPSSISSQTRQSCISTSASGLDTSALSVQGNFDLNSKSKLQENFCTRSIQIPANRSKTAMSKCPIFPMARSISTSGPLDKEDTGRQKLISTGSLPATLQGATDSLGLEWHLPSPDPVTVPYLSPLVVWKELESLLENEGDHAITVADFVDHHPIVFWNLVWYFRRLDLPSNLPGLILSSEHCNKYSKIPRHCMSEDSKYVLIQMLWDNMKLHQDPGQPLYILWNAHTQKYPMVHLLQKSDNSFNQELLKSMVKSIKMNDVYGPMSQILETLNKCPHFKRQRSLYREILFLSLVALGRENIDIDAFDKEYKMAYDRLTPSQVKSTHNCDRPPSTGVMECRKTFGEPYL
UniProt Q15700, whole entry, looked up: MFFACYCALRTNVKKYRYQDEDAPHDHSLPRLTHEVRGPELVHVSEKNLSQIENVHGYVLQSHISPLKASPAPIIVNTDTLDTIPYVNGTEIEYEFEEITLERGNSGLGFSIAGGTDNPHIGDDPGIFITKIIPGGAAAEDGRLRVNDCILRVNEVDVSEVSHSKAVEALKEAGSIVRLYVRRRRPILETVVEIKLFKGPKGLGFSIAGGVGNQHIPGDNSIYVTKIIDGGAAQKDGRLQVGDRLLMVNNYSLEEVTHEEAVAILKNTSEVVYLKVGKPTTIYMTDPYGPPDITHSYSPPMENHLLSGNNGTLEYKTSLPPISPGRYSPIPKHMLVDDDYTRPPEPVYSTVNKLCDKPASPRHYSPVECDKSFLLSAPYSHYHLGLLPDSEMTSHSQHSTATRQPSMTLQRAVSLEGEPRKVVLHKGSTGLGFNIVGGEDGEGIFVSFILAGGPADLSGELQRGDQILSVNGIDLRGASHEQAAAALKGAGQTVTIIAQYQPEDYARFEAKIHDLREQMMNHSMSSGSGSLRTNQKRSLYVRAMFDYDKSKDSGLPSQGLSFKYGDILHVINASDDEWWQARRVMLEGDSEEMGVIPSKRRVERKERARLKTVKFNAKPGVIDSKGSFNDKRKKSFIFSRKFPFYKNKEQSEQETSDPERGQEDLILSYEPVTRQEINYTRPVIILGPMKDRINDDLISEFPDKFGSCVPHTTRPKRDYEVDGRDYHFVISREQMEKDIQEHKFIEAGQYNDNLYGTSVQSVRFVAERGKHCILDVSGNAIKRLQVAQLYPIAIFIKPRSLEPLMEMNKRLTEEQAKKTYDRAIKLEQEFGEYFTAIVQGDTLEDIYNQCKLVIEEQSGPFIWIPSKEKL
UniProt Q92620: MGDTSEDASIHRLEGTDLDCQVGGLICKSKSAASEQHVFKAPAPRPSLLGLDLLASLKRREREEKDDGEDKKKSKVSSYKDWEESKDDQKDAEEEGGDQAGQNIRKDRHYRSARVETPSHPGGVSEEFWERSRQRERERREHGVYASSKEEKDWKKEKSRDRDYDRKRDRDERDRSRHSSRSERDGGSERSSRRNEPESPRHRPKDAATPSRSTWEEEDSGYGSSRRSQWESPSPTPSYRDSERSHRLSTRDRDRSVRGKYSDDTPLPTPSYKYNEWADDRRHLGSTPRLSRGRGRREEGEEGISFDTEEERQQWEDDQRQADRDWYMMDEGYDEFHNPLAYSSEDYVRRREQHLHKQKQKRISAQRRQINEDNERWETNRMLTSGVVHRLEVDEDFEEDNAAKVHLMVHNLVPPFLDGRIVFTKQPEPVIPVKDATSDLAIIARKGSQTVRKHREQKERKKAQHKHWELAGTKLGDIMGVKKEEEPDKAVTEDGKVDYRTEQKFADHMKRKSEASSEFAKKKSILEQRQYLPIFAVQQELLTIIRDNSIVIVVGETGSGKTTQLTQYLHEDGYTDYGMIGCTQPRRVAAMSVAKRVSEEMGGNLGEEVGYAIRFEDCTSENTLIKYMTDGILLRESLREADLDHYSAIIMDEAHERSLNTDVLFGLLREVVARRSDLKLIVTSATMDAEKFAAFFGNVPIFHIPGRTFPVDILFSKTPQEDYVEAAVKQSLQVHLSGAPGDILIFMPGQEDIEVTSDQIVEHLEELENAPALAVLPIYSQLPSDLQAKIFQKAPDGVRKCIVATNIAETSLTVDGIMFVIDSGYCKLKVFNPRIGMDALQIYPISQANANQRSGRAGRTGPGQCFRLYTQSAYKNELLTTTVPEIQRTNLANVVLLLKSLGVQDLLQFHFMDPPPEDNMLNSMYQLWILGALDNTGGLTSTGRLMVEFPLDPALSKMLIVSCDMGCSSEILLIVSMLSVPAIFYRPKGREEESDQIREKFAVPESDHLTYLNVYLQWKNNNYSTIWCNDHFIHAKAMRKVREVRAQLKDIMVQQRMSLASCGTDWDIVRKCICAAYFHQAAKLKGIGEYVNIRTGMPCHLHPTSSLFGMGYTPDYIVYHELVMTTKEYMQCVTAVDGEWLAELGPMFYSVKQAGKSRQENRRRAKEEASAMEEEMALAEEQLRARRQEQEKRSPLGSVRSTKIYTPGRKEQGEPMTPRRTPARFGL

Compound in assay [2]: CC1=C(SC2=C1C(=N[C@H](C3=NN=C(N32)C)CC(=O)N)C4=CC=C(C=C4)Cl)C
In outline:
as §1

Compound in assay [3]: CC1=C2C(=CC=C1)N=C(N(C2=O)C3=CC=CC=C3C)CN4C=NC5=C(N=CN=C54)N
Put shortly: as §1

Compound in assay [4]: Cc1sc2c(c1C)C(c1ccc(Cl)cc1)=N[C@@H](CC(=O)OC(C)(C)C)c1nnc(C)n1-2
Put shortly: as §1

Compound in assay [5]: c1ccc([C@@H]2C[C@H]2NC2CCNCC2)cc1
In outline: as §1

Experimental findings from the supplement of paper PMC10849652 are described below.

The other results are listed elsewhere or left out.

For the target DLD (UniProt P09622), the log2 fold change in assay [1] was inactive: 0.016; in assay [2], inactive: 0.006; in assay [3], inactive: -0.005; in assay [4] it was inactive: -0.016; in assay [5] it was inactive: 0.044.
DMTN (UniProt Q08495): the log2 fold change in assay [1] was inactive: -0.001; in assay [2], inactive: 0.035; in assay [3] it was inactive: -0.014; in assay [4], inactive: 0; in assay [5], inactive: -0.024.
As for DEK (UniProt P35659), the log2 fold change in assay [1] was inactive: -0.025; in assay [2], inactive: 0.021; in assay [3], inactive: 0.067; in assay [4] it was inactive: -0.06; in assay [5], inactive: -0.008.
The corresponding values for DCXR (UniProt Q7Z4W1) are inactive: 0.032, inactive: -0.001, inactive: 0.059, inactive: 0.004 and inactive: 0.05.
Consider DDX21 (UniProt Q9NR30), for which the log2 fold change was inactive: -0.062 in assay [1]; inactive: -0.222 in assay [2]; inactive: -0.255 in assay [3]; inactive: 0.027 in assay [4]; inactive: 0.009 in assay [5].
As to DMAC1 (UniProt Q96GE9), the log2 fold change in assay [1] is inactive: 0.058; in assay [2], inactive: -0.041; in assay [3] it was inactive: 0.05; in assay [4], inactive: -0.085; in assay [5], inactive: 0.023.
The corresponding values for DIS3L2 (UniProt Q8IYB7) are inactive: -0.017, inactive: -0.026, inactive: 0.052, inactive: 0.04 and inactive: 0.006.
Turning to DDAH1 (UniProt O94760), the log2 fold change in assay [1] is inactive: -0.003; in assay [2] it was inactive: 0.127; in assay [3], inactive: 0.162; in assay [4], inactive: -0.161; in assay [5], inactive: 0.077.
The corresponding values for DHX36 (UniProt Q9H2U1) are inactive: 0.037, inactive: -0.087, inactive: -0.094, inactive: 0.091 and inactive: 0.015.
The corresponding values for DMAC2L (UniProt Q99766) are inactive: -0.019, inactive: 0.075, inactive: 0.114, inactive: -0.043 and inactive: -0.025.
The corresponding values for DIP2B (UniProt Q9P265) are inactive: 0, inactive: 0.059, inactive: 0.012, inactive: -0.035 and inactive: -0.003.
For the target DFFB (UniProt O76075), the log2 fold change was inactive: -0.027 in assay [1]; inactive: 0.099 in assay [2]; inactive: 0.048 in assay [3]; inactive: 0.202 in assay [4]; inactive: 0.049 in assay [5].
The corresponding values for DGUOK (UniProt Q16854) are inactive: 0.12, inactive: 0.054, inactive: 0.069, inactive: 0.034 and inactive: 0.046.
The corresponding values for DHX9 (UniProt Q08211) are inactive: 0.047, inactive: -0.135, inactive: -0.154, inactive: 0.14 and inactive: 0.027.
In the case of DDX5 (UniProt P17844), the log2 fold change in assay [1] is inactive: -0.061; in assay [2], inactive: 0.008; in assay [3], inactive: 0.067; in assay [4], inactive: -0.027; in assay [5], inactive: 0.038.
Take DLGAP5 (UniProt Q15398): the log2 fold change is inactive: 0.015 in assay [1]; inactive: -0.029 in assay [2]; inactive: -0.013 in assay [3]; inactive: 0.003 in assay [4]; inactive: 0.016 in assay [5].
The corresponding values for DHX29 (UniProt Q7Z478) are inactive: -0.012, inactive: -0.065, inactive: -0.048, inactive: 0.144 and inactive: 0.037.
The corresponding values for DDX19A (UniProt Q9NUU7) are inactive: -0.017, inactive: 0.065, inactive: 0.037, inactive: -0.022 and inactive: -0.036.
The corresponding values for DENND4A isoform 2 (UniProt Q7Z401) are inactive: -0.206, inactive: 0.042, inactive: 0.061, inactive: 0.148 and inactive: 0.019.
On to DLG2 isoform 2 (UniProt Q15700), for which the log2 fold change is inactive: -0.05 in assay [1]; inactive: 0.032 in assay [2]; inactive: 0.098 in assay [3]; inactive: -0.039 in assay [4]; inactive: 0.051 in assay [5].
The corresponding values for DECR1 (UniProt Q16698) are inactive: -0.019, inactive: -0.003, inactive: 0.003, inactive: -0.023 and inactive: -0.008.
For the target DHX38 (UniProt Q92620), the log2 fold change in assay [1] is inactive: 0.018; in assay [2], inactive: 0.021; in assay [3] it was inactive: 0.028; in assay [4], inactive: 0.035; in assay [5] it was inactive: -0.017.
The corresponding values for DMXL1 (UniProt Q9Y485) are inactive: -0.017, inactive: 0.003, inactive: 0.071, inactive: -0.016 and inactive: -0.05.
The corresponding values for DHCR7 (UniProt Q9UBM7) are inactive: -0.061, inactive: 0, inactive: 0.093, inactive: -0.186 and active: 1.06.
The corresponding values for DNAH9 (UniProt Q9NYC9) are inactive: 0.024, inactive: 0.046, inactive: 0.011, inactive: 0.031 and inactive: 0.021.
